The text below walks through data of PMC11672532.

Sequences of proteins named here, by UniProt entry; tags and fusion partners are left off. Residues count along the entry.
UniProt P08581, 25-1390: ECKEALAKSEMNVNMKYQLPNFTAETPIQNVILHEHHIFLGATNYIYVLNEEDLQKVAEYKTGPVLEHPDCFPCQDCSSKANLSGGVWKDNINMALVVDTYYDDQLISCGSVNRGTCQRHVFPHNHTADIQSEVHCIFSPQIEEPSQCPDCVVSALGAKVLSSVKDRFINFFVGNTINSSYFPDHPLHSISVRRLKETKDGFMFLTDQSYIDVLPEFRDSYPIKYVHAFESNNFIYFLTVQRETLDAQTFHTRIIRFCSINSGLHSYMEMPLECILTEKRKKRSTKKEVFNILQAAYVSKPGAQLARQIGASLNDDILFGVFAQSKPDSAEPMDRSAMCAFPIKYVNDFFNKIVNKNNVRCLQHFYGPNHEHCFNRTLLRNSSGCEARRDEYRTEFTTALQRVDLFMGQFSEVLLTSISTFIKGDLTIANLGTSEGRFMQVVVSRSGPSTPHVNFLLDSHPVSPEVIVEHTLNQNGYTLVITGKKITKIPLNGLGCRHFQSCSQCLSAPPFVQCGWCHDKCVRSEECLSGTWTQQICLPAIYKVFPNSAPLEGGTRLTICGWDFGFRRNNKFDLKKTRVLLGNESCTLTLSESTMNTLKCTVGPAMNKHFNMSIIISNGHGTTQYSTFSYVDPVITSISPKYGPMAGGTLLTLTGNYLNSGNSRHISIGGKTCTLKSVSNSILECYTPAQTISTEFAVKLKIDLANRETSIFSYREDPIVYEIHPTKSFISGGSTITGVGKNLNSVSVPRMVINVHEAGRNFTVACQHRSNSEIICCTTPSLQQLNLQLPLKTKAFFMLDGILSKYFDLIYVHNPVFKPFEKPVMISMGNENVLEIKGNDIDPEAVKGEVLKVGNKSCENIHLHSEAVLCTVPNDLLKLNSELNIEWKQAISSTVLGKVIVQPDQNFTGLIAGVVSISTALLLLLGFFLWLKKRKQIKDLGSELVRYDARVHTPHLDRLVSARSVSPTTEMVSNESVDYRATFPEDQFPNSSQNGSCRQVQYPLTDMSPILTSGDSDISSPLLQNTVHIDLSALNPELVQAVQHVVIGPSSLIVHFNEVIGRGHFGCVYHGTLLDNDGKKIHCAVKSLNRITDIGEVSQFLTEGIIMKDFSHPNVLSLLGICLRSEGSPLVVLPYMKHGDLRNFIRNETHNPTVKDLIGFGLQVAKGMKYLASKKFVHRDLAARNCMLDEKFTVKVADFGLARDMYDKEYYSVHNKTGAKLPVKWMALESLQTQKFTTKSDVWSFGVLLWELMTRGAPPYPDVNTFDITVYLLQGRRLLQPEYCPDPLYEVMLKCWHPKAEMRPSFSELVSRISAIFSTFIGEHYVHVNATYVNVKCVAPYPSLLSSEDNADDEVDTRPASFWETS

In the series the target is c-Met (UniProt P08581). In words: flow cytometry on cells. As to conditions: protein on the cell surface. Background: Flow cytometry measures light scatter and fluorescence of single cells or particles in a stream.

Construct, isoform or probe ends are uncertain for at least one entry. Where cells or extracts were used, other partners may take part. A weaker result is weaker than the reference pair of the same experiment. At least one verdict was read from the data and is not stated in words by the source.

Consider “ACCTGCCATGCTCGGTCGGGGTGGGTGGGTTGCGTTCAGA / GGTGTCACAGGCGGGACCCCCGACCGA / GTCCCGCCTGTGACACCTCCCGCCTGTGACATGCATTTTTTTTCCCGCCTGTGACATGCATTGTCCCGCCTGTGACACC / CAACCCACCCGGTGTCACAGGCGGGAC [NT-Ch2-Lib (library-strand nanotweezer)]”, for which the binding result (A549, signal similar to NT-Ch2-Apt on c-Met knockdown cells, 5' and 3' cholesterol on ASO strand, label: FAM (5' of DNA arm strand 1)) is on record as “binds more weakly”.

As to “TGGATGGTAGCTCGGTCGGGGTGGGTGGGTTGGCAAGTCT [FAM-c-Met aptamer]”, the binding result (A549 (high c-Met) versus HeLa (low c-Met), label: 5'-FAM, single-stranded DNA) is recorded as “binds”.
